Assay results from article PMC6917733 (Scientific Reports, 2019).
No constants are given. Whether binding was seen depends on the method and setting. In cells and extracts the contact can be indirect. Some binding calls cover weakened binding; strength is not graded here.

Sequences of proteins named here, by UniProt entry; tags and fusion partners are left off.
UniProt P30559: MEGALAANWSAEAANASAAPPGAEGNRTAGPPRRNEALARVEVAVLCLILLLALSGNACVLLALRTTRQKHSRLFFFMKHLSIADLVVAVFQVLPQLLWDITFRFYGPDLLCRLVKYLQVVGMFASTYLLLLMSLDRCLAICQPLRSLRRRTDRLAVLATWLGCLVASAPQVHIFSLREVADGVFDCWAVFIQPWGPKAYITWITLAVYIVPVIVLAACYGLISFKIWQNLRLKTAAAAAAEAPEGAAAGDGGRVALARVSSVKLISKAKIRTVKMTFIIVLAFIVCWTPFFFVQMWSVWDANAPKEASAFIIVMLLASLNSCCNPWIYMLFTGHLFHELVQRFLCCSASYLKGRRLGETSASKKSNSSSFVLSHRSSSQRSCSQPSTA
UniProt P37288: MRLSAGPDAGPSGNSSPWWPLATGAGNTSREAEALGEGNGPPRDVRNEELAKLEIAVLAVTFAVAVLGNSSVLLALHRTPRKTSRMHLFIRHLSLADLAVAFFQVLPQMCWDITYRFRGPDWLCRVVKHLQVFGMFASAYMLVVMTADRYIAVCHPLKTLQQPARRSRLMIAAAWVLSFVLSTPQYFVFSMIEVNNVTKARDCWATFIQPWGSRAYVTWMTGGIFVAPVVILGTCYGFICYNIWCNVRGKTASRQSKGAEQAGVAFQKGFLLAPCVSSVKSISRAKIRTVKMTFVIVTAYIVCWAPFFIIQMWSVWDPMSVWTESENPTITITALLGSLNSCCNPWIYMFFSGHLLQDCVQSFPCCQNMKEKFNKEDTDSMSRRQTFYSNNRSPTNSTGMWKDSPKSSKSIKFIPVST
UniProt P32121: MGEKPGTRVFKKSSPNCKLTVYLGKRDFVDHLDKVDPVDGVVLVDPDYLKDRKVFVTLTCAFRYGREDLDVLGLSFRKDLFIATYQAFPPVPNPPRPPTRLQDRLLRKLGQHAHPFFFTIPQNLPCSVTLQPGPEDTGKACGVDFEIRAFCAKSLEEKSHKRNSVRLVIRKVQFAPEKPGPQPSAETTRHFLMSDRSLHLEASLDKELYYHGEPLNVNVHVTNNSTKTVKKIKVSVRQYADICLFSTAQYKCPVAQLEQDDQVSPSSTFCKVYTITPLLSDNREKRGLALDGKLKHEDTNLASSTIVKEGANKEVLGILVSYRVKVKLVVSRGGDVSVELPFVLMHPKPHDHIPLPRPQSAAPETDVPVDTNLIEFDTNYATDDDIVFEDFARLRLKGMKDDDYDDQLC

Tests used:
[1] = biological target: EGFP-tagged human oxytocin receptor (human) (UniProt P30559); experiment: FRET or BRET; living HEK293 cells co-transfected with β-arrestin-1/2-Nluc and EGFP-tagged receptor plasmids (ratio 1:10), furimazine; stimulated with the endogenous ligand (OT at OTR; VP at V1aR, V1bR, V2R): 10 µM time course and concentration-response read 5 min after addition; ligand-induced BRET over HBSS
[2] = biological target: EGFP-tagged human vasopressin V1a receptor (human) (UniProt P37288); experiment: as above
[3] = biological target: EGFP-tagged human vasopressin V1a receptor (human) (UniProt P37288); experiment: condition: only cells stimulated with I8-arachnotocin (up to 100 µM) instead of VP; FRET or BRET; living HEK293 cells co-transfected with β-arrestin-1/2-Nluc and EGFP-tagged receptor plasmids (ratio 1:10), furimazine; stimulated with I8-arachnotocin: 10 µM time course and concentration-response (up to 100 µM) read 5 min after addition; ligand-induced BRET over HBSS, normalized to recruitment by OT/VP

binding [1]: binds
binding [2]: binds
binding [3]: no binding
Substance: β-arrestin-2-Nluc (from UniProt P32121 1-409)
